Reference: the supplement of paper PMC4635364
Structures can show the parent of a compound that is named as a salt. This is one part of the list. Repeats in this data set agree poorly, so a single value says little.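 Cells: ReNCell VM human fetal ventral-midbrain neural progenitors, differentiated mitogen-free. Blinded raters compared doublecortin-stained (early neurons) or tyrosine hydroxylase-stained (dopaminergic neurons) images with untreated wells, where 0 means no change. After repeats and both raters were averaged, compounds scoring 2 or above became hits for retesting.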

Experiments:
[1] = system: ReNCell VM; test: neuronal differentiation score (DCX+ cell fraction vs untreated, manual image score) (score (-3 to 3)); higher = more neuronal differentiation; conditions: 2 uM, 2 weeks
[2] = system: ReNCell VM; test: dopaminergic neuron differentiation score (TH+ cell fraction vs untreated, manual image score) (score (0 to 3)); higher = more TH+ dopaminergic neuron differentiation; conditions: 2 uM, 4 weeks, BDNF 10 ng/ml + GDNF 10 ng/ml

CCOC(=O)c1c(C)cc(O)cc1O
neuronal differentiation score ([1]; library: Spectrum): inactive: 0
dopaminergic neuron differentiation score ([2]; library: Spectrum): inactive: 0

COc1ccccc1N1CCN(CCN(C(=O)C2CCCCC2)c2ccccn2)CC1
neuronal differentiation score ([1]; library: LOPAC): inactive: 0
dopaminergic neuron differentiation score ([2]; library: LOPAC): inactive: 0

CCN1CCCC1CNC(=O)c1cc(S(N)(=O)=O)ccc1OC (single isomer, unassigned; (-)) [(-)-Sulpiride]
neuronal differentiation score ([1]; library: LOPAC): inactive: 0
dopaminergic neuron differentiation score ([2]; library: LOPAC): inactive: 0

CCN[C@H]1CN(CCCOC)S(=O)(=O)c2sc(S(N)(=O)=O)cc21 [Brinzolamide]
neuronal differentiation score ([1]; library: Prestwick): inactive: 0
dopaminergic neuron differentiation score ([2]; library: Prestwick): inactive: 0

CN1CC(=O)NC1=N
neuronal differentiation score ([1]; library: Spectrum): inactive: 0
dopaminergic neuron differentiation score ([2]; library: Spectrum): inactive: 0

NC(=O)c1cnccn1 [Pyrazinecarboxamide]
neuronal differentiation score ([1]; library: LOPAC): inactive: -1
dopaminergic neuron differentiation score ([2]; library: LOPAC): inactive: 0

O=c1c(-c2ccc(O)cc2)coc2c([C@@H]3O[C@H](CO)[C@@H](O)[C@H](O)[C@H]3O)c(O)ccc12
neuronal differentiation score ([1]; library: Spectrum): inactive: 0
dopaminergic neuron differentiation score ([2]; library: Spectrum): inactive: 0

CCCN(CCC)CCc1cccc2c1CC(=O)N2
neuronal differentiation score ([1]; library: Spectrum): inactive: 0
dopaminergic neuron differentiation score ([2]; library: Spectrum): inactive: 0

COc1c(O)cc2oc(Oc3ccc(O)cc3)cc(=O)c2c1O [capillarisin]
neuronal differentiation score ([1]; library: Natural): inactive: 0
dopaminergic neuron differentiation score ([2]; library: Natural): inactive: 0

CC12CCC3C(CC3(C)C)C(C)(CCC1=O)O2 (configuration not stated)
neuronal differentiation score ([1]; library: Spectrum): inactive: 0
dopaminergic neuron differentiation score ([2]; library: Spectrum): inactive: 0

C=C[C@H]1CN2CC[C@H]1C[C@H]2[C@H](O)c1ccnc2ccc(OC)cc12 [Quinine dihydrochloride]
neuronal differentiation score ([1]; library: Phytochemical): inactive: 0
dopaminergic neuron differentiation score ([2]; library: Phytochemical): inactive: 0

CC[C@@H](CC[C@@H](C)[C@H]1CC[C@H]2[C@@H]3CCC4C[C@@H](O)CC[C@]4(C)[C@H]3CC[C@]12C)C(C)C (stereo partly drawn) [Beta-sistosterol]
neuronal differentiation score ([1]; library: Phytochemical): inactive: -1
dopaminergic neuron differentiation score ([2]; library: Phytochemical): inactive: 0

COc1cc(OC)c(-c2c(OC)cc(OC)cc2OC)c(OC)c1
neuronal differentiation score ([1]; library: Spectrum): inactive: 0
dopaminergic neuron differentiation score ([2]; library: Spectrum): inactive: 0

Nc1ncnc2c1ncn2[C@@H]1O[C@H](COP(=O)(O)O)[C@@H](O)[C@H]1O
neuronal differentiation score ([1]; library: Spectrum): inactive: 0
dopaminergic neuron differentiation score ([2]; library: Spectrum): inactive: 0

C/C(=C\COc1cc(=O)[nH]c2ccccc12)CCC(O)C(C)(C)O (configuration not stated) [bucharaine]
neuronal differentiation score ([1]; library: Natural): inactive: 0
dopaminergic neuron differentiation score ([2]; library: Natural): inactive: 0

O=C1CC(c2ccc(O)cc2)Oc2ccccc21 (configuration not stated)
neuronal differentiation score ([1]; library: Spectrum): inactive: 0
dopaminergic neuron differentiation score ([2]; library: Spectrum): inactive: 0

CC(C)CC(NC(=O)[C@H](C)N)C(=O)O (mixture of isomers)
neuronal differentiation score ([1]; library: Spectrum): inactive: 0
dopaminergic neuron differentiation score ([2]; library: Spectrum): inactive: 0

COc1cc2occ(-c3ccc(OC)c(OC)c3OC)c(=O)c2cc1OC
neuronal differentiation score ([1]; library: Spectrum): inactive: 0
dopaminergic neuron differentiation score ([2]; library: Spectrum): inactive: 0

COc1ccc(-c2coc3c(OC)c(OC)cc(O)c3c2=O)cc1
neuronal differentiation score ([1]; library: Spectrum): inactive: -3
dopaminergic neuron differentiation score ([2]; library: Spectrum): inactive: 1

CC12CCC(CC1=O)C2(C)C (configuration not stated)
neuronal differentiation score ([1]; library: Spectrum): inactive: 0
dopaminergic neuron differentiation score ([2]; library: Spectrum): inactive: 0

CC(=O)[C@H]1CC[C@H]2[C@@H]3CC=C4C[C@@H](OS(=O)(=O)O)CC[C@]4(C)[C@H]3CC[C@]12C [Pregnenolone sulfate sodium]
neuronal differentiation score ([1]; library: LOPAC): inactive: 0
dopaminergic neuron differentiation score ([2]; library: LOPAC): inactive: 1
